One substance from article PMC5175174 can be followed below.

Sequences of proteins named here, by UniProt entry; tags and fusion partners are left off. Residues count along the entry.
UniProt A0A0R6L508, residues 219-541: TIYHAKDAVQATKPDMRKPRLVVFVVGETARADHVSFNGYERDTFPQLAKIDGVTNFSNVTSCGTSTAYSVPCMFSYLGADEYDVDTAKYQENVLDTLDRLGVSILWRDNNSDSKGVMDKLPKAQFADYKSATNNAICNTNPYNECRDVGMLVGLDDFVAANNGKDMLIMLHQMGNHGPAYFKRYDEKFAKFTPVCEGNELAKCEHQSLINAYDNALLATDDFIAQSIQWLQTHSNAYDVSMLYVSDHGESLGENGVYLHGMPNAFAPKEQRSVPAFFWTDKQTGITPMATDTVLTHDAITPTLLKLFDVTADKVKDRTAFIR

No constants are given. Whether binding was seen depends on the method and setting.

In the experiment the target is C-terminal catalytic domain of MCR-1. Briefly: SEC-MALS; printed only as 'multi-angle light scattering method' (Fig. S1); conditions not told in the text shown; both purified.

As for “C-terminal catalytic domain of MCR-1 (from UniProt A0A0R6L508 219-541) (domain or fragment)”, the binding result is “no binding”.
